Reference: paper PMC2956978, “Production, Purification, and Characterization of Polygalacturonase from Mucor circinelloides ITCC 6025” (Enzyme Research, 2010)

System: T1, polygalacturonase (PGase)
T1 construct: native extracellular enzyme purified from culture filtrate (ethanol precipitation, Sephacryl S-100); 66 kDa on SDS-PAGE
Assay: reducing sugar release from polygalacturonic acid (Somogyi)
Assay type: biochemical, Mucor circinelloides
Conditions: 50 µM; residual activity versus control 100%; 50 mM citrate buffer pH 5.4; 5 min preincubation at 37 °C; substrate polygalacturonic acid

Compound | Relative Activity (%)
O=C(O)c1cc([N+](=O)[O-])cc([N+](=O)[O-])c1O [2,4-dinitrosalicylic Acid] | 51.1
O=C(/C=C/c1ccc(O)c(O)c1)O[C@@H]1C[C@](O)(C(=O)O)C[C@@H](O)[C@H]1O [Chlorogenic Acid] | 58.0
O=C(O)/C=C/c1ccccc1 [Cinnamic Acid] | 44.0
COc1cc(/C=C/C(=O)O)ccc1O [Ferulic Acid] | 56.0
O=C(O)/C=C/c1ccc(O)cc1 [p-Coumaric Acid] | 54.0
